These are yes or no findings as the source states them, for the method shown. In cells and extracts the contact can be indirect. Some binding calls cover weakened binding; strength is not graded here.

In assay [1] the target is AGR2 deletion mutant lacking the C-terminal KTEL motif (human) (UniProt O95994). Description: cross-linking; DSP-mediated chemical crosslinking of AGR2 in cell lysates and culture supernatant of PANC-1 stable cells, non-reducing (and reducing) SDS-PAGE, Western blot with anti-AGR2. (A western blot detects proteins with antibodies after separation by electrophoresis.)
Assay [2] deals with T1, wild type AGR2 (anterior gradient-2) (human), O95994.
T1 chain: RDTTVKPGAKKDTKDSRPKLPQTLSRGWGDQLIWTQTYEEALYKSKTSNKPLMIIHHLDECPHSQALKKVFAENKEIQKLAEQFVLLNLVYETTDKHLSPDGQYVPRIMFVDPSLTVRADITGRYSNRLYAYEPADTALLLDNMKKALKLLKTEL
The assay is described as above. The following applies: remark: other sources report otherwise.

Take “AGR2 deletion mutant lacking the C-terminal KTEL motif (from UniProt O95994 21-175)”: the binding entry in assay [1] was “binds”.

B1: wild type AGR2 (anterior gradient-2), O95994 21-175 (protein)
chain: RDTTVKPGAKKDTKDSRPKLPQTLSRGWGDQLIWTQTYEEALYKSKTSNKPLMIIHHLDECPHSQALKKVFAENKEIQKLAEQFVLLNLVYETTDKHLSPDGQYVPRIMFVDPSLTVRADITGRYSNRLYAYEPADTALLLDNMKKALKLLKTEL
For the molecule B1, the binding result in assay [2] is “binds”.

Values taken from publication PMC7791724.
